{"source": "patent US9670221B2", "about": "“Furopyridines as bromodomain inhibitors” (GlaxoSmithKline Intellectual Property (No.2) Limited, priority 2013, dated 2017)", "note": "Structures can show the parent of a compound that is named as a salt. Some results were stated once for a whole list of compounds, not compound by compound."}
{"tested_on": "BRD4 BD1 over BRD4 BD2", "test": "Selectivity for BRD4 BD1 over BRD4 BD2 from the TR-FRET assays", "type": "binding, Human", "units": {"selectivity for BRD4 BD1 over BRD4 BD2 (BRD4 BD1 pIC50 - BRD4 BD2 pIC50)": "log unit"}}
{"smiles": "CC(c1cc2c(=O)n(C)cc(-c3ccnc(OCC4CCOCC4)c3)c2o1)N1CCN(S(C)(=O)=O)CC1", "note": "(single isomer, unassigned) [Example 21a, 5-methyl-2-(1-(4-(methylsulfonyl)piperazin-1-yl)ethyl)-7-(2-((tetrahydro-2H-pyran-4-yl)methoxy)pyridin-4-yl)furo[3,2-c]pyridin-4(5H)-one]", "selectivity for BRD4 BD1 over BRD4 BD2 (BRD4 BD1 pIC50 - BRD4 BD2 pIC50)": "> 2"}
{"smiles": "COc1ccc(-c2cn(C)c(=O)c3cc(CN4CCOCC4C)oc23)cc1OC", "note": "(stereo not drawn) [Example 16, 7-(3,4-dimethoxyphenyl)-5-methyl-2-((3-methylmorpholino)methyl)furo[3,2-c]pyridin-4(5H)-one]", "selectivity for BRD4 BD1 over BRD4 BD2 (BRD4 BD1 pIC50 - BRD4 BD2 pIC50)": "≥ 1"}
{"smiles": "CC(c1cc2c(=O)n(C)cc(-c3ccnc(OCC4CCOCC4)c3)c2o1)N1CCN(S(C)(=O)=O)CC1.O=CO", "note": "(stereo not drawn) [Example 21, 5-methyl-2-(1-(4-(methylsulfonyl)piperazin-1-yl)ethyl)-7-(2-((tetrahydro-2H-pyran-4-yl)methoxy)pyridin-4-yl)furo[3,2-c]pyridin-4(5H)-one formate]", "selectivity for BRD4 BD1 over BRD4 BD2 (BRD4 BD1 pIC50 - BRD4 BD2 pIC50)": "> 2"}
{"smiles": "C[C@@H]1CN(S(C)(=O)=O)CCN1Cc1cc2c(=O)n(C)cc(-c3ccnc(OCC4CC4)c3)c2o1", "note": "[Example 23, (R)-7-(2-(cyclopropylmethoxy)pyridin-4-yl)-5-methyl-2-((2-methyl-4-(methylsulfonyl)piperazin-1-yl)methyl)furo[3,2-c]pyridin-4(5H)-one]", "selectivity for BRD4 BD1 over BRD4 BD2 (BRD4 BD1 pIC50 - BRD4 BD2 pIC50)": "> 2"}
{"smiles": "C[C@@H]1CN(S(C)(=O)=O)CCN1Cc1cc2c(=O)n(C)cc(-c3ccnc(NC(=O)C4CC4)c3)c2o1", "note": "[Example 24, (R)—N-(4-(5-methyl-2-((2-methyl-4-(methylsulfonyl)piperazin-1-yl)methyl)-4-oxo-4,5-dihydrofuro[3,2-c]pyridin-7-yl)pyridin-2-yl)cyclopropanecarboxamide]", "selectivity for BRD4 BD1 over BRD4 BD2 (BRD4 BD1 pIC50 - BRD4 BD2 pIC50)": "> 2"}
{"smiles": "CCC(=O)Nc1cc(-c2cn(C)c(=O)c3cc(CN4CCN(S(C)(=O)=O)C[C@H]4C)oc23)ccn1", "note": "[Example 25, (R)—N-(4-(5-methyl-2-((2-methyl-4-(methylsulfonyl)piperazin-1-yl)methyl)-4-oxo-4,5-dihydrofuro[3,2-c]pyridin-7-yl)pyridin-2-yl)propionamide]", "selectivity for BRD4 BD1 over BRD4 BD2 (BRD4 BD1 pIC50 - BRD4 BD2 pIC50)": "> 2"}
{"smiles": "COCCOc1cc(-c2cn(C)c(=O)c3cc(CN4CCN(S(C)(=O)=O)C[C@H]4C)oc23)ccn1", "note": "[Example 26, (R)-7-(2-(2-methoxyethoxy)pyridin-4-yl)-5-methyl-2-((2-methyl-4-(methylsulfonyl)piperazin-1-yl)methyl)furo[3,2-c]pyridin-4(5H)-one]", "selectivity for BRD4 BD1 over BRD4 BD2 (BRD4 BD1 pIC50 - BRD4 BD2 pIC50)": "> 2"}
{"smiles": "C[C@@H]1CN(S(C)(=O)=O)CCN1Cc1cc2c(=O)n(C)cc(-c3ccnc(OCCN4CCCC4)c3)c2o1", "note": "[Example 27, (R)-5-methyl-2-((2-methyl-4-(methylsulfonyl)piperazin-1-yl)methyl)-7-(2-(2-(pyrrolidin-1-yl)ethoxy)pyridin-4-yl)furo[3,2-c]pyridin-4(5H)-one]", "selectivity for BRD4 BD1 over BRD4 BD2 (BRD4 BD1 pIC50 - BRD4 BD2 pIC50)": "> 2"}
{"smiles": "Cn1cc(-c2ccnc(OCC3CCOCC3)c2)c2oc(CN3CCS(=O)(=O)CC3)cc2c1=O", "note": "[Example 28, 2-((1,1-dioxidothiomorpholino)methyl)-5-methyl-7-(2-((tetrahydro-2H-pyran-4-yl)methoxy)pyridin-4-yl)furo[3,2-c]pyridin-4(5H)-one]", "selectivity for BRD4 BD1 over BRD4 BD2 (BRD4 BD1 pIC50 - BRD4 BD2 pIC50)": "> 2"}
{"smiles": "CC(=O)N(C)c1cc(-c2cn(C)c(=O)c3cc(CN4CCN(S(C)(=O)=O)C[C@H]4C)oc23)ccn1", "note": "[Example 30, (R)—N-methyl-N-(4-(5-methyl-2-((2-methyl-4-(methylsulfonyl)piperazin-1-yl)methyl)-4-oxo-4,5-dihydrofuro[3,2-c]pyridin-7-yl)pyridin-2-yl)acetamide]", "selectivity for BRD4 BD1 over BRD4 BD2 (BRD4 BD1 pIC50 - BRD4 BD2 pIC50)": "> 2"}
{"smiles": "Cn1cc(-c2ccncc2OCC2CC2)c2oc(CN3CCN(S(C)(=O)=O)CC3)cc2c1=O", "note": "[Example 31, 7-(3-(cyclopropylmethoxy)pyridin-4-yl)-5-methyl-2-((4-(methylsulfonyl)piperazin-1-yl)methyl)furo[3,2-c]pyridin-4(5H)-one]", "selectivity for BRD4 BD1 over BRD4 BD2 (BRD4 BD1 pIC50 - BRD4 BD2 pIC50)": "> 2"}
{"smiles": "C[C@@H]1CN(S(C)(=O)=O)CCN1Cc1cc2c(=O)n(C)cc(-c3ccncc3OCC3CC3)c2o1", "note": "[Example 32, (R)-7-(3-(cyclopropylmethoxy)pyridin-4-yl)-5-methyl-2-((2-methyl-4-(methylsulfonyl)piperazin-1-yl)methyl)furo[3,2-c]pyridin-4(5H)-one]", "selectivity for BRD4 BD1 over BRD4 BD2 (BRD4 BD1 pIC50 - BRD4 BD2 pIC50)": "> 2"}
{"smiles": "Cl.Cn1cc(-c2ccnc(NCc3ccccn3)c2)c2oc(CN3CCCNCC3)cc2c1=O", "note": "[Example 34, 2-((1,4-diazepan-1-yl)methyl)-5-methyl-7-(2-((pyridin-2-ylmethyl)amino)pyridine-4-yl)furo[3,2-c]pyridin-4(5H)-one hydrochloride]", "selectivity for BRD4 BD1 over BRD4 BD2 (BRD4 BD1 pIC50 - BRD4 BD2 pIC50)": "> 2"}
{"smiles": "C[C@@H]1CN(S(C)(=O)=O)CCN1Cc1cc2c(=O)n(C)cc(-c3ccnc(OCCN4CCCC4=O)c3)c2o1", "note": "[Example 35, (R)-5-methyl-2-((2-methyl-4-(methylsulfonyl)piperazin-1-yl)methyl)-7-(2-(2-(2-oxopyrrolidin-1-yl)ethoxy)pyridin-4-yl)furo[3,2-c]pyridin-4(5H)-one]", "selectivity for BRD4 BD1 over BRD4 BD2 (BRD4 BD1 pIC50 - BRD4 BD2 pIC50)": "> 2"}
{"smiles": "CC(=O)Nc1cc(-c2cn(C)c(=O)c3cc(C(C)N4CCN(S(C)(=O)=O)CC4)oc23)ccn1", "note": "(stereo not drawn) [Example 36, N-(4-(5-methyl-2-(1-(4-(methylsulfonyl)piperazin-1-yl)ethyl)-4-oxo-4,5-dihydrofuro[3,2-c]pyridin-7-yl)pyridin-2-yl)acetamide, formic acid salt]", "selectivity for BRD4 BD1 over BRD4 BD2 (BRD4 BD1 pIC50 - BRD4 BD2 pIC50)": "> 2"}
{"smiles": "CC(=O)Nc1cc(-c2cn(C)c(=O)c3cc(CN4CCN(S(C)(=O)=O)CC4)oc23)ccn1", "note": "[Example 37, N-(4-(5-methyl-2-((4-(methylsulfonyl)piperazin-1-yl)methyl)-4-oxo-4,5-dihydrofuro[3,2-c]pyridin-7-yl)pyridin-2-yl)acetamide]", "selectivity for BRD4 BD1 over BRD4 BD2 (BRD4 BD1 pIC50 - BRD4 BD2 pIC50)": "> 2"}
{"smiles": "CC(=O)Nc1cncc(-c2cn(C)c(=O)c3cc(CN4CCN(S(C)(=O)=O)C[C@H]4C)oc23)c1", "note": "[Example 38, (R)—N-(5-(5-methyl-2-((2-methyl-4-(methylsulfonyl)piperazin-1-yl)methyl)-4-oxo-4,5-dihydrofuro[3,2-c]pyridin-7-yl)pyridin-3-yl)acetamide]", "selectivity for BRD4 BD1 over BRD4 BD2 (BRD4 BD1 pIC50 - BRD4 BD2 pIC50)": "> 2"}
{"smiles": "Cn1cc(-c2ccncc2NCC2CC2)c2oc(CN3CCN(S(C)(=O)=O)CC3)cc2c1=O", "note": "[Example 39, 7-(3-((cyclopropylmethyl)amino)pyridin-4-yl)-5-methyl-2-((4-(methylsulfonyl)piperazin-1-yl)methyl)furo[3,2-c]pyridin-4(5H)-one]", "selectivity for BRD4 BD1 over BRD4 BD2 (BRD4 BD1 pIC50 - BRD4 BD2 pIC50)": "> 2"}
{"smiles": "C[C@@H]1CN(S(C)(=O)=O)CCN1Cc1cc2c(=O)n(C)cc(-c3ccncc3NCC3CC3)c2o1", "note": "[Example 40, (R)-7-(3-((cyclopropylmethyl)amino)pyridin-4-yl)-5-methyl-2-((2-methyl-4-(methylsulfonyl)piperazin-1-yl)methyl)furo[3,2-c]pyridin-4(5H)-one]", "selectivity for BRD4 BD1 over BRD4 BD2 (BRD4 BD1 pIC50 - BRD4 BD2 pIC50)": "> 2"}
{"smiles": "C[C@@H]1CN(S(C)(=O)=O)CCN1Cc1cc2c(=O)n(C)cc(-c3ccncc3OCC3CCO3)c2o1", "note": "(stereo partly drawn) [Example 41, 5-methyl-2-(((R)-2-methyl-4-(methylsulfonyl)piperazin-1-yl)methyl)-7-(3-(oxetan-2-ylmethoxy)pyridin-4-yl)furo[3,2-c]pyridin-4(5H)-one]", "selectivity for BRD4 BD1 over BRD4 BD2 (BRD4 BD1 pIC50 - BRD4 BD2 pIC50)": "> 2"}
{"smiles": "C[C@@H]1CN(S(C)(=O)=O)CCN1Cc1cc2c(=O)n(C)cc(-c3ccncc3OC[C@H]3CCO3)c2o1", "note": "[Example 42, 5-methyl-2-(((R)-2-methyl-4-(methylsulfonyl)piperazin-1-yl)methyl)-7-(3-((R)-oxetan-2-ylmethoxy)pyridin-4-yl)furo[3,2-c]pyridin-4(5H)-one]", "selectivity for BRD4 BD1 over BRD4 BD2 (BRD4 BD1 pIC50 - BRD4 BD2 pIC50)": "> 2"}
{"smiles": "C[C@@H]1CN(S(C)(=O)=O)CCN1Cc1cc2c(=O)n(C)cc(-c3ccncc3OC[C@@H]3CCO3)c2o1", "note": "[Example 43, 5-methyl-2-(((R)-2-methyl-4-(methylsulfonyl)piperazin-1-yl)methyl)-7-(3-((S)-oxetan-2-ylmethoxy)pyridin-4-yl)furo[3,2-c]pyridin-4(5H)-one]", "selectivity for BRD4 BD1 over BRD4 BD2 (BRD4 BD1 pIC50 - BRD4 BD2 pIC50)": "> 2"}
{"smiles": "C[C@@H]1CN(S(C)(=O)=O)CCN1Cc1cc2c(=O)n(C)cc(-c3ncccc3OCC3CC3)c2o1", "note": "[Example 44, (R)-7-(3-(cyclopropylmethoxy)pyridin-2-yl)-5-methyl-2-((2-methyl-4-(methylsulfonyl)piperazin-1-yl)methyl)furo[3,2-c]pyridin-4(5H)-one]", "selectivity for BRD4 BD1 over BRD4 BD2 (BRD4 BD1 pIC50 - BRD4 BD2 pIC50)": "> 2"}
{"smiles": "C[C@@H]1CN(S(C)(=O)=O)CCN1Cc1cc2c(=O)n(C)cc(-c3ccncc3OCC3COC3)c2o1", "note": "[Example 46, (R)-5-methyl-2-((2-methyl-4-(methylsulfonyl)piperazin-1-yl)methyl)-7-(3-(oxetan-3-ylmethoxy)pyridin-4-yl)furo[3,2-c]pyridin-4(5H)-one]", "selectivity for BRD4 BD1 over BRD4 BD2 (BRD4 BD1 pIC50 - BRD4 BD2 pIC50)": "> 2"}
{"smiles": "CC(=O)Nc1cccc(-c2cn(C)c(=O)c3cc(CN4CCN(S(C)(=O)=O)CC4)oc23)c1", "note": "[Example 48, N-(3-(5-methyl-2-((4-(methylsulfonyl)piperazin-1-yl)methyl)-4-oxo-4,5-dihydrofuro[3,2-c]pyridin-7-yl)phenyl)acetamide]", "selectivity for BRD4 BD1 over BRD4 BD2 (BRD4 BD1 pIC50 - BRD4 BD2 pIC50)": "> 2"}
{"smiles": "C[C@@H]1CN(S(C)(=O)=O)CCN1Cc1cc2c(=O)n(C)cc(-c3cccnc3NCC3CC3)c2o1", "note": "[Example 49, (R)-7-(2-((cyclopropylmethyl)amino)pyridin-3-yl)-5-methyl-2-((2-methyl-4-(methylsulfonyl)piperazin-1-yl)methyl)furo[3,2-c]pyridin-4(5H)-one]", "selectivity for BRD4 BD1 over BRD4 BD2 (BRD4 BD1 pIC50 - BRD4 BD2 pIC50)": "> 2"}
{"smiles": "C[C@@H]1CN(S(C)(=O)=O)CCN1Cc1cc2c(=O)n(C)cc(-c3cccc(N)c3)c2o1", "note": "[Example 50, (R)-7-(3-aminophenyl)-5-methyl-2-((2-methyl-4-(methylsulfonyl)piperazin-1-yl)methyl)furo[3,2-c]pyridin-4(5H)-one]", "selectivity for BRD4 BD1 over BRD4 BD2 (BRD4 BD1 pIC50 - BRD4 BD2 pIC50)": "> 2"}
